Tested on: CSC propagation
Assay: IC-50s of metabolic agents for inhibiting CSC propagation (Table 3)
Type: cell-based
Conditions: Table 3, values given with nM
Description: Glycolysis is required to provide additional TCA cycle intermediates for the mitochondrial processing of Acetyl-CoA. […] Briefly, 2-deoxy-D-glucose (2-DG) or ascorbic acid were dissolved in culture medium. […] Bonuccelli et al. Oncotarget, 8: 20667-20678 (2017). […] 15, 2017, and Patent Cooperation Treaty (PCT) Patent Application PCT/US2018/022403, filed Mar. 14, 2018, the entireties of which are incorporated herein by reference; mitoketoscins, such as those disclosed in U.S. Provisional Patent Application No. 62/524,829, filed Jun. 26, 2017, the entirety of which is incorporated herein by reference; mitoflavoscins, such as those disclosed in U.S. Provisional Patent Application No. 62/576,287, filed Oct. 24, 2017, the entirety of which is incorporated herein by reference; TPP-compounds (e.g., 2-butene-1,4-bis-TPP), such as those disclosed in U.S. Provisional Patent Application No. 62/590,432, filed Nov. 24, 2017, the entirety of which is incorporated herein by reference; mDIVI1, such as those disclosed in U.S. Provisional Patent Application No. 62/608,065, filed Dec. […]

- IC50: 100 nM
Compound: Cc1cc(/C=C/c2ccc3cc(N(C)C)ccc3[n+]2C)c(C)n1-c1ccccc1 [Pyrvinium pamoate]

Source: patent publication US11229657B2, “Targeting hypoxic cancer stem cells (CSCs) with doxycycline: implications for improving anti-angiogenic therapy” (LUNELLA BIOTECH, INC., priority 2017, dated 2022)
